Experimental findings from the supplement of paper PMC6411743 are described below.

Amino acid sequences for entries named in this document (tags omitted). A change or cut given only in a name is not applied to a line headed by its entry.
UniProt Q9BSH5: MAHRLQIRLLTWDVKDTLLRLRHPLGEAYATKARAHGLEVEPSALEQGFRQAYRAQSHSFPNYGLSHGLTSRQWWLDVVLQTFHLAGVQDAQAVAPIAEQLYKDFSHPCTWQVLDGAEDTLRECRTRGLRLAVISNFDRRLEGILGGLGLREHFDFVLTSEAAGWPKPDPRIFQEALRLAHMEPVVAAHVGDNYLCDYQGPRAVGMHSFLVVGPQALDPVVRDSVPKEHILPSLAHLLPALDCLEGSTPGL
UniProt Q9BRA0: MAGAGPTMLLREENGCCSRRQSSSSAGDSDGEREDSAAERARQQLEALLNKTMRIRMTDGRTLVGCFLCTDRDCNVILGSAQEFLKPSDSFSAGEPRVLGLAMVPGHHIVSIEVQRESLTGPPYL
UniProt Q9BWS9: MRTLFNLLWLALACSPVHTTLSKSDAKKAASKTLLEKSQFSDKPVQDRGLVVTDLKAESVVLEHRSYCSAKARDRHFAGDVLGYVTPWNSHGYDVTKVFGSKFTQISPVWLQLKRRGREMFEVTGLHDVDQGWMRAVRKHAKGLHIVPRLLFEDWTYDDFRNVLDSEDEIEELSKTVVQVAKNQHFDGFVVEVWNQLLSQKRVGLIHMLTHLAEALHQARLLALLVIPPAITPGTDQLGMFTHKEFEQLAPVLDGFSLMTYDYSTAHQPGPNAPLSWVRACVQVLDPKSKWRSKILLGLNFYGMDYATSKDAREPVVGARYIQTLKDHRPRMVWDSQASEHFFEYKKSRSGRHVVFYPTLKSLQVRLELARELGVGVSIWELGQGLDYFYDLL
UniProt Q9BRX8: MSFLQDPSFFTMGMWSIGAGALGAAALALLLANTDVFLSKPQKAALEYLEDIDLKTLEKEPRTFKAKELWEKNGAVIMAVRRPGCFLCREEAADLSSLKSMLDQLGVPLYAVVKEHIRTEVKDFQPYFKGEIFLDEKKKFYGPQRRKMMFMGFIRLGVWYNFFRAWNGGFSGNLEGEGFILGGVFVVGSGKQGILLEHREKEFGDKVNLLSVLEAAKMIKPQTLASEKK
UniProt Q9BPZ7, whole entry: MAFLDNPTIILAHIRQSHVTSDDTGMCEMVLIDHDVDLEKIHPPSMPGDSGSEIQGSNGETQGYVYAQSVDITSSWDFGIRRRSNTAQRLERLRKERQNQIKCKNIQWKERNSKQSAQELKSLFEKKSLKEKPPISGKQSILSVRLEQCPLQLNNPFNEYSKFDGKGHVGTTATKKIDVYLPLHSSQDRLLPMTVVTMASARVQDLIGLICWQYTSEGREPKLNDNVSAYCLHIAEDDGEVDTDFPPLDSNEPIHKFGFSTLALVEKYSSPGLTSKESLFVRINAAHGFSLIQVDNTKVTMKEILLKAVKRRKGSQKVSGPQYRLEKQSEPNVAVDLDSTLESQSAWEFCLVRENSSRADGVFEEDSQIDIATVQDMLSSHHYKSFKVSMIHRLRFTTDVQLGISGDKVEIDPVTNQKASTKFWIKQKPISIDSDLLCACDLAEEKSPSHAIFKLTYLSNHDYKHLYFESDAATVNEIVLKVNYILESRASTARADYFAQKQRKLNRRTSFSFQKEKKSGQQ
UniProt Q9BQF6: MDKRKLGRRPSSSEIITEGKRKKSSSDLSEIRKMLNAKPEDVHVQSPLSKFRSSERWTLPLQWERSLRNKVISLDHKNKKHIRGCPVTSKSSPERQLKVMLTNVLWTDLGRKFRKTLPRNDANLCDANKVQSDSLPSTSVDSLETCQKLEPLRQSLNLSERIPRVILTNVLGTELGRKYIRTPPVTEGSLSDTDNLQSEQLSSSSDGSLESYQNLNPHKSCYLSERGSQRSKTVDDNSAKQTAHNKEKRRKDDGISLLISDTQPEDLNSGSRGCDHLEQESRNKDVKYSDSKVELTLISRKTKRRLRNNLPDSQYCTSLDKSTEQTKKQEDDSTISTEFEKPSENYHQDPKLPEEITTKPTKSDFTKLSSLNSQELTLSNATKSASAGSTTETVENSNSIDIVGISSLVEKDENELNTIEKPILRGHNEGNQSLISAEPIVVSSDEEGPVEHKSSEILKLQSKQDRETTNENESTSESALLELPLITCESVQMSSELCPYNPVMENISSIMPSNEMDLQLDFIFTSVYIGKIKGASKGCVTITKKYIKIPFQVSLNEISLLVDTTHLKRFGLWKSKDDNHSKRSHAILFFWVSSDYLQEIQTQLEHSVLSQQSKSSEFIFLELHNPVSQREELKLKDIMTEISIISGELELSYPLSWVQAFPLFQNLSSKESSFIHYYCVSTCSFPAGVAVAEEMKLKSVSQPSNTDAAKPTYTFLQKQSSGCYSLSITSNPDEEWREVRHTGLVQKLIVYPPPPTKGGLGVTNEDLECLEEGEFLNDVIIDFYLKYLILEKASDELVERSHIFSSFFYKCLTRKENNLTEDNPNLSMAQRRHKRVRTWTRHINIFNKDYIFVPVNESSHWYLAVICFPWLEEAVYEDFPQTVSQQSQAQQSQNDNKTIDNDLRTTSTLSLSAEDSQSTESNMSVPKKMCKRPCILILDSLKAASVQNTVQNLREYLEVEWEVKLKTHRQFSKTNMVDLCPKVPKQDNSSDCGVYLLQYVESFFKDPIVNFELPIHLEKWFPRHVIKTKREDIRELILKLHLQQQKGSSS
UniProt Q9BPW8: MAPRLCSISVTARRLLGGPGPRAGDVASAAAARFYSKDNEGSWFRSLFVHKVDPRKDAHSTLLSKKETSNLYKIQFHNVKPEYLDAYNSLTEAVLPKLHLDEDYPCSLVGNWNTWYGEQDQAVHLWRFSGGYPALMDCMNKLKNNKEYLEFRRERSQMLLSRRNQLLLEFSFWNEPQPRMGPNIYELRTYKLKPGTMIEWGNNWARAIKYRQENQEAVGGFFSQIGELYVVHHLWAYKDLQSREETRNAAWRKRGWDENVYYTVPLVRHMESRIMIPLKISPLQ
UniProt Q9BYT8, whole entry, looked up: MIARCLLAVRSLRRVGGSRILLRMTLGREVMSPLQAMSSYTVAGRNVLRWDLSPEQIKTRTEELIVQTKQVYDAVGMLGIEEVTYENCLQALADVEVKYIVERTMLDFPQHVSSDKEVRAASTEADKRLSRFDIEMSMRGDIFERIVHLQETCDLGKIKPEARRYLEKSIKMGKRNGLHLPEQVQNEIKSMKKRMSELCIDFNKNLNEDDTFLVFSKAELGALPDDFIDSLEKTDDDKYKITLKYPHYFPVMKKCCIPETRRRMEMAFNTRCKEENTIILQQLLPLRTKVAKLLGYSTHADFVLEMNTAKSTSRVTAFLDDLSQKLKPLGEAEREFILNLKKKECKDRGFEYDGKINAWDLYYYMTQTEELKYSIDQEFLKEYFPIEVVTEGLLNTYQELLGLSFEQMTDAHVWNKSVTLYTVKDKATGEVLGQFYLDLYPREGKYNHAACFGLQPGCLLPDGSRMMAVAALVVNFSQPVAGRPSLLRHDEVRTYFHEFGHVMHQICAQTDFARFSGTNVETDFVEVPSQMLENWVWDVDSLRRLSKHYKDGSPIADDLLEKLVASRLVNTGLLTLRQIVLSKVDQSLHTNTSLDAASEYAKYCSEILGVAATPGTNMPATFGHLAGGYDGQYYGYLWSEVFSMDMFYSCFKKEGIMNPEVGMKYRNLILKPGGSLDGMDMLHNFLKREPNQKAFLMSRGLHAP
UniProt Q9BSB4: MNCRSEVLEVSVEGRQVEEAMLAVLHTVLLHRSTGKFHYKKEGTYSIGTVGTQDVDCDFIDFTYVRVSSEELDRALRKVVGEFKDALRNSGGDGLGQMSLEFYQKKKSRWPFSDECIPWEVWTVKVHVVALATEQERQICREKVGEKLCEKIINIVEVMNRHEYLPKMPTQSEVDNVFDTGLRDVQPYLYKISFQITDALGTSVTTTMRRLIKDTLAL
UniProt Q9BUT1: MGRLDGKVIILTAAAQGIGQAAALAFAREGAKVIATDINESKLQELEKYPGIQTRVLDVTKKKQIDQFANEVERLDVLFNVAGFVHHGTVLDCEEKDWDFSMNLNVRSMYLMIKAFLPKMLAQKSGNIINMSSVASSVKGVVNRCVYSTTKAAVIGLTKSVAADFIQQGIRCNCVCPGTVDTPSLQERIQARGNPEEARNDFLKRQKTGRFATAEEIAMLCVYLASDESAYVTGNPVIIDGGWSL
UniProt Q99442: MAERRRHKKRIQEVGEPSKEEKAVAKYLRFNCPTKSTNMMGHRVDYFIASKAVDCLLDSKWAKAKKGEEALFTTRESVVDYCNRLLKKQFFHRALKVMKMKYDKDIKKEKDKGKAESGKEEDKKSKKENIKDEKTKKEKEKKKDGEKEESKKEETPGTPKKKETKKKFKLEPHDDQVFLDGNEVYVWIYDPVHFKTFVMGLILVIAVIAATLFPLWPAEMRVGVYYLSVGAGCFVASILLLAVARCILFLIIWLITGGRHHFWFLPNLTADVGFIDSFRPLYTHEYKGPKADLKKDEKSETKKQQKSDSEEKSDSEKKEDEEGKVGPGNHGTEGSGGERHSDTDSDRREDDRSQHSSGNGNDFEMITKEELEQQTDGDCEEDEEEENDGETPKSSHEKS
UniProt Q9BPZ3: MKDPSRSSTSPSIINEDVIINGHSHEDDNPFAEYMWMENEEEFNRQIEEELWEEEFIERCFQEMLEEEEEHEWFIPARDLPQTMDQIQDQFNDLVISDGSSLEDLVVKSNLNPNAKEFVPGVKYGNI
UniProt Q9BWG4: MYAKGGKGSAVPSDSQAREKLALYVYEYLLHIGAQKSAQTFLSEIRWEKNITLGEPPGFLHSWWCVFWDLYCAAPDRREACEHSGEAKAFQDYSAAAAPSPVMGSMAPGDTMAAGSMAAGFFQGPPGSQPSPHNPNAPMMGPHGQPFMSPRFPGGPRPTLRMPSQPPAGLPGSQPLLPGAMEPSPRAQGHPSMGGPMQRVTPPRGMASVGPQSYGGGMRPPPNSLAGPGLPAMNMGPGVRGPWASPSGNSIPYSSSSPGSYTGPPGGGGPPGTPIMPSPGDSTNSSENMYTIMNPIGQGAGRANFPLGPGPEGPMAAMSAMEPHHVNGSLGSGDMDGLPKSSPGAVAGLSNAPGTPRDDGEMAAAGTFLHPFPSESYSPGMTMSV
UniProt Q9BZ95: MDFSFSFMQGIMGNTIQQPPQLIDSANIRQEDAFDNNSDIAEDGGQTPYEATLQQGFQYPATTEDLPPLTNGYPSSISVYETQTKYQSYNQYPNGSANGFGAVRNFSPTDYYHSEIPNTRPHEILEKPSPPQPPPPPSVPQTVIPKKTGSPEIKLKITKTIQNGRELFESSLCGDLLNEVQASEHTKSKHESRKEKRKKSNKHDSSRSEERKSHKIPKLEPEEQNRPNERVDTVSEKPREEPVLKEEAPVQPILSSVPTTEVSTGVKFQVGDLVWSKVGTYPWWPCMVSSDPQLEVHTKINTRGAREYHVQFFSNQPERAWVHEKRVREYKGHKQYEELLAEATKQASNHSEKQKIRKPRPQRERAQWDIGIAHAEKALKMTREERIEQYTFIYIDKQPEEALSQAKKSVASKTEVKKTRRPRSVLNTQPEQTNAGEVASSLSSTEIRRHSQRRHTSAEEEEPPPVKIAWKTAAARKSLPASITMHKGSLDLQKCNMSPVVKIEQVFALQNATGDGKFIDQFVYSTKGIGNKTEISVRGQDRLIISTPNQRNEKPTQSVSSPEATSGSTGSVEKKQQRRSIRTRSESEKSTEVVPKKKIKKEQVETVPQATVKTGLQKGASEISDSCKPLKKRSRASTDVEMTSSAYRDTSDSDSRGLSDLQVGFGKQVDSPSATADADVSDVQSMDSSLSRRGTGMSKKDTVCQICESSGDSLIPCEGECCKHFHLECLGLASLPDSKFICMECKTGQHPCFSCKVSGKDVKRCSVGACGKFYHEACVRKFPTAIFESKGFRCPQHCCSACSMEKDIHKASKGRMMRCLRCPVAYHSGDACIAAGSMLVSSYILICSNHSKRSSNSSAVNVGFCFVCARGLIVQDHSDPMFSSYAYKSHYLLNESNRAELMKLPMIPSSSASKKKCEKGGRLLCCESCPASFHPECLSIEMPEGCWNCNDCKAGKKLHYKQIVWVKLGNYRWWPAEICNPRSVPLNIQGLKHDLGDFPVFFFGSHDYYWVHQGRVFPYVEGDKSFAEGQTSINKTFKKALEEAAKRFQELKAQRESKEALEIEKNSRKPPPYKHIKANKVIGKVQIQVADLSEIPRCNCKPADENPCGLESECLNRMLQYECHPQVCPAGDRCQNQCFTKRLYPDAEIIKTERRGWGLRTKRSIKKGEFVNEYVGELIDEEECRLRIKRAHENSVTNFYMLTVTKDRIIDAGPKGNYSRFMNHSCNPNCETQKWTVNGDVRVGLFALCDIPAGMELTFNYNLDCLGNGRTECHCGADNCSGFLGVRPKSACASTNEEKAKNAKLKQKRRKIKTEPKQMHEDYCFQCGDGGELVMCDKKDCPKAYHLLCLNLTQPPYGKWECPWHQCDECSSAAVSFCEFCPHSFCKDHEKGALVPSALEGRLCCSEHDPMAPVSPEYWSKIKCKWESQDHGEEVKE
UniProt Q9BQ15: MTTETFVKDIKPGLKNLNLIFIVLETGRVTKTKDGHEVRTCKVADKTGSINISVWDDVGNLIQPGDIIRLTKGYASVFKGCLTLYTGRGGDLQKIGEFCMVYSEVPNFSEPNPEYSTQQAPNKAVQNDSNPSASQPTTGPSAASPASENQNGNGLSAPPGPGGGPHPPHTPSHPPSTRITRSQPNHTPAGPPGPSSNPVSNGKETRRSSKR

± gives the standard deviation of the averaged measurements. This is a selection; strong and weak results do not stand in their true shares.

Compound in the assay: Nc1ncnc2c1ncn2[C@@H]1O[C@H](COP(=O)(O)OP(=O)(O)OP(=O)(O)O)[C@@H](O)[C@H]1O [adenosine triphosphate]
Description: NP40-soluble protein abundance relative to vehicle (solubility fold change) (ratio); higher = more soluble protein in presence of ATP. To be noted: concentration: 8mM. An outline of the steps: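 Across three independent experiments, values are fold changes against the detergent-processed vehicle for each replicate, based on vsn-normalised intensities. The samples were Jurkat crude lysate treated with eight concentrations (0.1 to 10 mM) for 10 min at room temperature and then 3 min at 37 °C. Lysate was solubilised with 0.8% NP40 and benzonase, ultracentrifuged, and the supernatant analysed by TMT-labelled LC-MS/MS.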
With HDHD3 (UniProt Q9BSH5), the NP40-soluble protein abundance was 1.04 ± 0.038. With UniProt Q9BRA0 and related entries, the NP40-soluble protein abundance turned out to be 0.901 ± 0.097.

Consider CARD11 (UniProt Q9BXL7), for which the NP40-soluble protein abundance is 0.944 ± 0.053.

With UniProt Q9BW91 and related entries, the NP40-soluble protein abundance was determined as 1.04 ± 0.13. With UniProt Q9BWS9 and related entries, the NP40-soluble protein abundance amounted to 1.12 ± 0.097. Regarding UniProt Q99549 and related entries, the NP40-soluble protein abundance is 1.08 ± 0.032. In the case of UniProt Q9BQ24 and related entries it was 1.04 ± 0.03; in that of UniProt Q9BRX8 and related entries, 0.969 ± 0.08; in that of UniProt Q9BPZ7 and related entries, 1.07 ± 0.075. In the case of UniProt Q9BQF6 and related entries it was 1.21 ± 0.056; in that of UniProt Q9BQS8 and related entries, 0.9267 ± 0.0043; in that of PIK3R4 (UniProt Q99570), 0.984 ± 0.016.

For NIPSNAP1 (UniProt Q9BPW8), the NP40-soluble protein abundance came out at 0.984 ± 0.039.

For the target NLN (UniProt Q9BYT8), the NP40-soluble protein abundance came out at 1.01 ± 0.068. The result for SIKE1 (UniProt Q9BRV8) reads 0.896 ± 0.014. Consider UniProt Q9BSB4, for which the NP40-soluble protein abundance was 1.06 ± 0.058.

Take MACROD1 (UniProt Q9BQ69): the NP40-soluble protein abundance amounted to 0.889 ± 0.072.

Consider UniProt Q9BUT1 and related entries, for which the NP40-soluble protein abundance worked out at 0.9 ± 0.024. As to FSD1 (UniProt Q9BTV5), the NP40-soluble protein abundance was 1.02 ± 0.07. Regarding PSMB7 (UniProt Q99436), the NP40-soluble protein abundance came to 0.888 ± 0.062. Turning to SEC62 (UniProt Q99442), the NP40-soluble protein abundance was determined as 0.901 ± 0.037.

Turning to “UniProt Q9BZ29-4|A0A088AWN3|A0A0A0MRA7|A0A0A0MSY4|Q9BZ29 and related entries”, the NP40-soluble protein abundance was 1.07 ± 0.011. With PAIP2 (UniProt Q9BPZ3), the NP40-soluble protein abundance came out at 0.892 ± 0.036. As to UniProt Q9BZE9 and related entries, the NP40-soluble protein abundance was found to be 0.916 ± 0.043. In the case of UniProt Q9BWG4 and related entries, the NP40-soluble protein abundance stood at 1.02 ± 0.028. Regarding MAK16 (UniProt Q9BXY0), the NP40-soluble protein abundance came to 1.07 ± 0.046.

As to UniProt Q9BZ95 and related entries, the NP40-soluble protein abundance was 1.33 ± 0.029. As for UniProt Q9BZL4 and related entries, the NP40-soluble protein abundance stood at 0.942 ± 0.036. ALKBH7 (UniProt Q9BT30): the NP40-soluble protein abundance worked out at 0.933 ± 0.062. With NUP85 (UniProt Q9BW27), the NP40-soluble protein abundance stood at 1.05 ± 0.04.

CABLES2 (UniProt Q9BTV7): the NP40-soluble protein abundance was determined as 0.957 ± 0.22. Take NABP2 (UniProt Q9BQ15): the NP40-soluble protein abundance is 0.942 ± 0.056. In the case of UniProt Q9BVP2 and related entries it was 1.49 ± 0.082; in that of UniProt Q99714 and related entries, 0.934 ± 0.035. The result for SDF2 (UniProt Q99470) reads 0.977 ± 0.037.
